Experimental data: paper doi:10.1101/773796
Results are given in words; binding and its absence hold for the method and conditions named. In cells and extracts the contact can be indirect. Some results given as binding are weak or reduced against the parent protein; the word gives no strength. Where a sequence is shown, tags or fusion partners need not be part of it.

Biological target: T1, V5-PR36 (proline-arginine dipeptide repeat protein, 36 repeats)
T1 sequence: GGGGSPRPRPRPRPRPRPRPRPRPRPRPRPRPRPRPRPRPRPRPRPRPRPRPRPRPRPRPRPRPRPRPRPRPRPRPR
Assay: co-IP

binding: binds
B1: GFP-tagged Staufen (protein, UniProt P25159 1-1026)
chain: MQHNVHAARPAPHIRAAHHHSHSHAHMHLHPGMEQHLGPSLQQQQQPPPPPQQPPHRDLHARLNHHHLHAQQQQQQQTSSNQAGAVAAAGAAYHHGNINSNSGSNISSNSNQMQKIRQQHQHLSSSNGLLGNQPPGPPPQAFNPLAGNPAALAYNQLPPHPPHHMAAHLGSYAAPPPHYYMSQAKPAKYNHYGSNANSNSGSNNSNSNYAPKAILQNTYRNQKVVVPPVVQEVTPVPEPPVTTNNATTNSTSNSTVIASEPVTQEDTSQKPETRQEPASADDHVSTGNIDATGALSNEDTSSSGRGGKDKTPMCLVNELARYNKITHQYRLTEERGPAHCKTFTVTLMLGDEEYSADGFKIKKAQHLAASKAIEETMYKHPPPKIRRSEEGGPMRTHITPTVELNALAMKLGQRTFYLLDPTQIPPTDSIVPPEFAGGHLLTAPGPGMPQPPPPPAYALRQRLGNGFVPIPSQPMHPHFFHGPGQRPFPPKFPSRFALPPPLGAHVHHGPNGPFPSVPTPPSKITLFVGKQKFVGIGRTLQQAKHDAAARALQVLKTQAISASEEALEDSMDEGDKKSPISQVHEIGIKRNMTVHFKVLREEGPAHMKNFITACIVGSIVTEGEGNGKKVSKKRAAEKMLVELQKLPPLTPTKQTPLKRIKVKTPGKSGAAAREGSVVSGTDGPTQTGKPERRKRLNPPKDKLIDMDDADNPITKLIQLQQTRKEKEPIFELIAKNGNETARRREFVMEVSASGSTARGTGNSKKLAKRNAAQALFELLEAVQVTPTNETQSSEECSTSATMSAVTAPAVEATAEGKVPMVATPVGPMPGILILRQNKKPAKKRDQIVIVKSNVESKEEEANKEVAVAAEENSNNSANSGDSSNSSSGDSQATEAASESALNTSTGSNTSGVSSNSSNVGANTDGNNHAESKNNTESSSNSTSNTQSAGVHMKEQLLYLSKLLDFEVNFSDYPKGNHNEFLTIVTLSTHPPQICHGVGKSSEESQNDAASNALKILSKLGLNNAMK
